The values below come from US20220049021A1.

Protein sequences, listed by entry. Tags and fused reporters are not part of them. Lines headed by an entry give the natural chain unless they say otherwise; changes in a name come on top. Chains listed by the source or under a name are the forms on record and can include a tag or linker. Residues count along the entry.
UniProt P12314, residues 16-288: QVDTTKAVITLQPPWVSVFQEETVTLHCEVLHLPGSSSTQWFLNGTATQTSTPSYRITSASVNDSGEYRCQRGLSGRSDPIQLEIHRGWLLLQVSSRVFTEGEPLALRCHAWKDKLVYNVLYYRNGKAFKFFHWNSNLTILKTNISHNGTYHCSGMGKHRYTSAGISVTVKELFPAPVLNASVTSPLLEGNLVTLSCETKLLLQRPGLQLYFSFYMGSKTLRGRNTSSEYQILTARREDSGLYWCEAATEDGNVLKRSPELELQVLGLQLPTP
biotinylated FcγRIIIa (Val176 variant) protein (Sino Biological) (P08637, form named): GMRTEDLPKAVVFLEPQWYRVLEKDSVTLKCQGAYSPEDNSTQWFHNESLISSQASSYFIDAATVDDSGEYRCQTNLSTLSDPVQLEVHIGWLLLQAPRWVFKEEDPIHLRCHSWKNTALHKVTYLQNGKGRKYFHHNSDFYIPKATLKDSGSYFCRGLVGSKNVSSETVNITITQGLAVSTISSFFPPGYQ

Results are given in words; binding and its absence hold for the method and conditions named. Tags and fused reporters may be left off the sequences shown.

Assay [1] deals with biotinylated FcγRI protein (Sino Biological) (human) (UniProt P12314). The assay can be described thus: AlphaScreen competition with human IgG acceptor beads for biotinylated FcγRI. (In general: Alpha assays give light when donor and acceptor beads are brought close together.)
For assay [2], the target named is biotinylated FcγRIIIa (Val176 variant) protein (Sino Biological) (human) (UniProt P08637). Kind of assay: AlphaScreen competition with human IgG acceptor beads for biotinylated FcγRIIIa (Val176 variant).

B1: human FLT3-ligand (Δ5 amino acid) human IgG4 (S228P/F234A/L235A/M252Y/S254T/T256E) fusion protein (SEQ ID NO:14) (Fc fusion)
chain: TQDCSFQHSPISSDFAVKIRELSDYLLQDYPVTVASNLQDEELCGGLWRLVLAQRWMERLKTVAGSKMQGLLERVNTEIHFVTKCAFQPPPSCLRFVQTNISRLLQETSEQLVALKPWITRQNFSRCLELQCQPDSSTLPPPWSPRPLEATAESKYGPPCPPCPAPEAAGGPSVFLFPPKPKDTLYITREPEVTCVVVDVSQEDPEVQFNWYVDGVEVHNAKTKPREEQFNSTYRVVSVLTVLHQDWLNGKEYKCKVSNKGLPSSIEKTISKAKGQPREPQVYTLPPSQEEMTKNQVSLTCLVKGFYPSDIAVEWESNGQPENNYKTTPPVLDSDGSFFLYSRLTVDKSRWQEGNVFSCSVMHEALHNHYTQKSLSLSLGK
Regarding B1, the values for the binding entry in assay [1] and in assay [2] were “no binding (tested: 294 nM (top of the titration))” and “no binding (tested: 1176 nM (top of the titration))”, respectively.
